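A673 Ewing sarcoma cells treated with compound for 48 h, with viable cell amount judged from a luminescence signal of metabolically active cells.
Each compound ran as an 11-point titration, from about 0.78 nM to roughly 46 µM.
Potency is the fitted AC50 for the drop in viability; a smaller value means a more potent cytotoxic effect.
Calls follow NCATS curve-class scoring: well-fitted cytotoxic curves score 40–100 as active, weak, partial or top-dose-only curves score 1–39 as inconclusive, and flat curves are inactive.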

Values are in µM.
All entries here are filed as inconclusive.
These entries are mostly ones the record files as inconclusive; other results of the assay are not listed here.
A potency from a partial, single-point or poor curve is only a rough figure.
Some entries filed as inconclusive have a full curve.
Activity scores are not listed here.

* CCC(=O)OCC(=O)[C@@]1(OC(=O)CC)[C@@H](C)C[C@@H]2[C@H]3CCC4=CC(=O)C=C[C@]4(C)[C@@]3(F)[C@@H](O)C[C@@]21C : fitted potency 13.1 µM (cytotoxic, partial curve, poor fit)
* C[C@](O)(CS(=O)(=O)c1ccc(F)cc1)C(=O)Nc1ccc(C#N)c(C(F)(F)F)c1 : fitted potency 36.92 µM (cytotoxic, single point)
* Cc1cc(Nc2ncnc3ccc(-c4ccc(CNCCS(C)(=O)=O)o4)cc23)ccc1Oc1ccn2ncnc2c1 : fitted potency 29.33 µM (cytotoxic, single point)
* CC(=O)OCC(=O)[C@@]1(O)CC[C@H]2[C@@H]3CCC4=CC(=O)C=C[C@]4(C)[C@@]3(F)[C@@H](O)C[C@@]21C : fitted potency 32.91 µM (cytotoxic, single point)
* CC1Sc2c(C(=O)O)c(=O)c3cc(F)c(N4CCNCC4)cc3n21 (centres undefined) : fitted potency 18.51 µM (cytotoxic, partial curve)
* CC(C)C[C@@H](C(=O)N[C@H](C(=O)OC1CCCC1)c1ccccc1)[C@H](O)C(=O)NO : fitted potency 26.14 µM (cytotoxic, single point)
* COc1cc2c(cc1Cc1cccc(Cl)c1F)c(=O)c(C(=O)O)cn2[C@H](CO)C(C)C : fitted potency 36.92 µM (cytotoxic, single point)
* CCCCCCCCCCCC1=C(O)C(=O)C=C(O)C1=O : fitted potency 36.92 µM (cytotoxic, single point)
* ClC1=C(Cl)C2(Cl)C(CBr)CC1(Cl)C2(Cl)Cl (centres undefined) : fitted potency 5.216 µM (cytotoxic, full curve)
* CC(S)C(=O)NCC(=O)O (centres undefined) : fitted potency 18.51 µM (cytotoxic, single point)
* CN(C)c1ccc(C2Nc3ccc4ccccc4c3C3=C2C(=O)CC(C)(C)C3)cc1Br (centres undefined) : fitted potency 20.76 µM (cytotoxic, single point)
* Cc1c(C)n(Cc2ccc(-c3ccccc3C(=O)O)cc2)c2ccc(C(=O)N[C@@H](C)c3ccc([N+](=O)[O-])cc3)cc12 : fitted potency 36.92 µM (cytotoxic, single point)
* CC(NC(C)(C)C)C(=O)c1cccc(Cl)c1 (centres undefined) : fitted potency 20.76 µM (cytotoxic, partial curve, poor fit)
* CC(CCc1ccc(O)cc1)NCCc1ccc(O)c(O)c1 (centres undefined) : fitted potency 36.92 µM (cytotoxic, single point)
* CC=C(C)C(=O)O[C@H]1C(C)=C[C@]23C(=O)[C@@H](C=C(CO)[C@@H](O)[C@]12O)[C@H]1[C@@H](C[C@H]3C)C1(C)C : fitted potency 0.0329 µM (cytotoxic, full curve)
* Clc1ccc(C(c2ccccc2Cl)C(Cl)Cl)cc1 (centres undefined) : fitted potency 36.92 µM (cytotoxic, single point)
* CC(=O)O[C@]1(C(C)=O)CC[C@@H]2[C@@H]3C[C@H](C)C4=CC(=O)CC[C@]4(C)[C@H]3CC[C@@]21C : fitted potency 23.3 µM (cytotoxic, partial curve, poor fit)
* Cc1cc(OCCCc2c(C(=O)O)n(Cc3cccnc3)c3c(-c4c(COc5ccc(N6CCN([S+](C)(=O)[O-])CC6)cc5)nn(C)c4C)cccc23)cc(C)c1Cl : fitted potency 20.76 µM (cytotoxic, partial curve, poor fit)

Repeated from the top, 2 entries:

{"compound": "CCC(=O)OCC(=O)[C@@]1(OC(=O)CC)[C@@H](C)C[C@@H]2[C@H]3CCC4=CC(=O)C=C[C@]4(C)[C@@]3(F)[C@@H](O)C[C@@]21C", "fitted potency (µM)": "13.1", "curve": "cytotoxic, partial curve, poor fit"}
{"compound": "C[C@](O)(CS(=O)(=O)c1ccc(F)cc1)C(=O)Nc1ccc(C#N)c(C(F)(F)F)c1", "fitted potency (µM)": "36.92", "curve": "cytotoxic, single point"}

From PubChem BioAssay record AID1347110 (NCATS, 2019).